Data as given in PubChem BioAssay AID493014 (National Center for Advancing Translational Sciences (NCATS), 2011).
This is one part of the list. Further columns of the screen follow, without active or inactive calls. Compounds called inactive in the main read-out are mostly missing here. Potencies come from curve fits of mixed quality, noted in brackets.

Experiment: qHTS Assay to Find Inhibitors of Chronic Active B-Cell Receptor Signaling
Settings: ABC-DLBCL IkBa-CBG/CBR reporter, luminescence ratio (green luciferase fused to IkBa over red control in TMD8 lymphoma cells), 4 h
In short: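 Cell line TMD8 (human ABC DLBCL), stably expressing tet-inducible CBG68-IkBa fusion and CBR; IMDM/0.5% FBS; cpd up to 46 uM; dox induction, 4 h, 37C/5% CO2; dual luminescence; green/red ratio; MG132 control.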

[1] = measured here: CBR red luminescence, cell number
[2] = measured here: IkBa-CBG green luminescence

Compound	AC50 [1]	AC50 [2]
CCCC1=NN(c2ccc([N+](=O)[O-])cc2)C(=O)/C1=C\N(C)C	16.4 µM [falling, single point]	–
N#Cc1ccc(Nc2nc(-c3ccc(O)cc3O)cs2)cc1C(F)(F)F	20.6 µM [falling, single point]	29.1 µM [rising, partial curve, poor fit]
OCC1(CCOc2ccccc2)CCN(Cc2cn[nH]c2-c2ccc(F)cc2)CC1	14.1 µM [falling, partial curve, poor fit]	–
Fc1ccc(Cn2c(-c3cccc(Br)c3)nc3ccccc32)cc1	1.41 µM [falling, full curve, poor fit]	–
CC(=O)/C(N=Nc1ccc2c(c1)OCO2)=C(\C)O	18.4 µM [rising, partial curve, poor fit]	–
O=c1[nH]nc(SCc2cc(Cl)ccc2Cl)c(=O)[nH]1	35.5 µM [rising, single point]	–
CCN(CC)CCOC(=O)c1ccc(NC(=O)CCCN2C(=O)S/C(=C/c3ccc(OC)cc3)C2=S)cc1	0.501 µM [falling, full curve, poor fit]	–
CCCCNC(=O)COc1ccccc1[N+](=O)[O-]	11.6 µM [rising, partial curve, poor fit]	–
O=C(Nc1nnc(-c2ccco2)o1)c1ccc(N2C(=O)CCC2=O)cc1	15.8 µM [falling, partial curve, poor fit]	–
O=[N+]([O-])c1ccccc1-c1ccc(C(=S)N2CCN(c3ccccc3)CC2)o1	22.4 µM [rising, single point]	–
CC(C)(CN=C1NS(=O)(=O)c2ccccc21)CNC(=O)c1ccccc1	35.5 µM [falling, partial curve, poor fit]	–
CCOC(=O)c1ccc(NC(=S)N2CCCC(C(=O)N3CCCC3)C2)cc1 (configuration not stated)	5.01 µM [falling, partial curve]	–
Cc1ccc2c(c1)[C@H]1[C@H](CO2)[C@H](c2ccccc2)[C@]2(C)C(=O)Nc3cc(Cl)ccc3C(=O)N12	3.66 µM [falling, full curve]	–
O=C(CCCN1C(=O)/C(=C\c2ccccc2)SC1=S)Nc1ccc(C(=O)O)cc1	2.24 µM [falling, full curve]	–
O=C(CCN1C(=O)/C(=C/c2ccccc2)SC1=S)NCCc1ccc(O)cc1	35.5 µM [rising, single point]	–
CCOc1ccc(Nc2cc(C)nc(-n3nc(C)cc3C)n2)cc1	3.98 µM [rising, full curve, poor fit]	8.91 µM [falling, partial curve]
COc1ccc(S(=O)(=O)N(C(C)=O)c2ccc(OC(C)=O)c3ccccc23)cc1[N+](=O)[O-]	18.4 µM [falling, single point]	–
Cc1ccc(C(=O)c2c(NC(=O)CSc3nnc(N)s3)sc3c2CCCC3)cc1	11.6 µM [falling, partial curve]	–
Brc1ccc(-c2csc(/N=C/N3CCCC3)n2)cc1	1 µM [rising, full curve, poor fit]	–

A draw from above in order of count of non-hydrogen atoms, largest number first:
Compound	AC50 [1]	AC50 [2]
COc1ccc(S(=O)(=O)N(C(C)=O)c2ccc(OC(C)=O)c3ccccc23)cc1[N+](=O)[O-]	18.4 µM [falling, single point]	–
CC(C)(CN=C1NS(=O)(=O)c2ccccc21)CNC(=O)c1ccccc1	35.5 µM [falling, partial curve, poor fit]	–
CCCC1=NN(c2ccc([N+](=O)[O-])cc2)C(=O)/C1=C\N(C)C	16.4 µM [falling, single point]	–

(more compounds)

Compound	AC50 [1]	AC50 [2]
COc1ccc(NC(=O)c2cccc3c2C(=O)c2ccc(-c4cnc(OC)nc4)cc2S3(=O)=O)cc1	2.06 µM [falling, full curve, poor fit]	–
O=C(Nc1ccc2oc(-c3ccccc3F)nc2c1)c1ccc2c(c1)OCCO2	10 µM [falling, partial curve, poor fit]	–
COc1cccc(C(=O)NN2C(=O)C3C4C=CC(O4)C3C2=O)c1 (configuration not stated)	11.6 µM [falling, partial curve, poor fit]	–
Cc1cc(N/N=C/c2ccccc2Cl)nc(NCc2ccccc2)n1	29.1 µM [falling, single point]	–
Cc1cccc(C)c1NC(=O)CCS(=O)(=O)c1cccc2nsnc12	25.9 µM [rising, single point]	–
O=C(CS(=O)(=O)c1cn(CC(=O)N2CCOCC2)c2ccccc12)Nc1ccccc1F	7.08 µM [falling, partial curve, poor fit]	–
CSc1ccc(NC(=O)NCc2ccccc2)cc1	2.24 µM [falling, full curve]	–
O=C(Nc1ccc(-c2nnn(CC(=O)N3CCN(C(=O)c4ccco4)CC3)n2)cc1)c1ccc(F)cc1	17.8 µM [falling, single point]	–
O=C(CCC1CCCC1)NC1CCCCC1	0.82 µM [falling, full curve, poor fit]	–
O=C(NN=C1CCCC1)c1ccccc1O	2 µM [falling, full curve]	–
CCOc1ccccc1NC(=O)c1nc2nc(C)cc(C(F)F)n2n1	3.98 µM [falling, partial curve, poor fit]	–
O=C(Nc1ccc2nc(-c3cccs3)[nH]c2c1)c1cccs1	18.4 µM [falling, partial curve, poor fit]	9.2 µM [rising, partial curve, poor fit]
COc1ccc(S(=O)(=O)Nc2ccccc2OC)cc1NC(=O)c1cc2ccccc2oc1=O	29.1 µM [falling, single point]	–
O=S(=O)(NCc1nc(-c2ccccc2)no1)c1ccc(F)cc1	3.55 µM [rising, partial curve, poor fit]	–
COc1ccc2c(c1)cc(C)c1nnc(SCC(=O)N3CCN(C(=O)c4ccco4)CC3)n12	14.1 µM [rising, partial curve, poor fit]	–
CC(C)Cc1nnc(NC(=O)C2CCCC2)s1	3.55 µM [rising, partial curve]	6.31 µM [falling, single point]
COc1cc(C(CC(=O)Nc2cccc(C)n2)N2Cc3ccccc3C2=O)cc(OC)c1OC (configuration not stated)	3.98 µM [rising, full curve, poor fit]	–
COc1ccc(Cl)cc1N1C(=O)/C(=C\c2sccc2C)N=C1SCC(=O)NC1CC1	18.4 µM [falling, single point]	–
Cc1cnc(NC(=O)c2cccs2)s1	4.47 µM [falling, partial curve, poor fit]	–
